In PMC7206140:
Results are given in words; binding and its absence hold for the method and conditions named. Binding seen in cells or lysates may run through a third protein. A yes stands for co-enrichment or nearness to the bait. Other partners may have been found. Sequences can lack the tags named with a protein.

Chains of the proteins cited; added tags and fusions are not shown. Residues count along the entry.
UniProt P10809, residues 27-573: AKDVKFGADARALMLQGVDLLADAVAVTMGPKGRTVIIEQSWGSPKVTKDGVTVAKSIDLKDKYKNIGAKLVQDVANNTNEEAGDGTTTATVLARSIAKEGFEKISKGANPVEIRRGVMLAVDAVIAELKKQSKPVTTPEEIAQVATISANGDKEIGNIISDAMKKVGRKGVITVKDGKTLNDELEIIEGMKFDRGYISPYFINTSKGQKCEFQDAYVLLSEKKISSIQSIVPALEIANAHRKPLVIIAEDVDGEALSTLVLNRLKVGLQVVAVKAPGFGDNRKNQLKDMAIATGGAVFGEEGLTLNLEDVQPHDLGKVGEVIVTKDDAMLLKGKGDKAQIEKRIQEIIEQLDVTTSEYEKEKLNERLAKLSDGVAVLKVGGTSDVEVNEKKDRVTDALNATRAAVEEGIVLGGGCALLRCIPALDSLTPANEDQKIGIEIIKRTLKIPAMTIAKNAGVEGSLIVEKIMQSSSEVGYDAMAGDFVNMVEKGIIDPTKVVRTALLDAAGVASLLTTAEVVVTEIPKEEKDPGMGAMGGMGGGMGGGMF

Target: T1, GFP-tagged NT5DC2 (5'-Nucleotidase domain containing 2) (human) (UniProt Q9H857)
T1 sequence: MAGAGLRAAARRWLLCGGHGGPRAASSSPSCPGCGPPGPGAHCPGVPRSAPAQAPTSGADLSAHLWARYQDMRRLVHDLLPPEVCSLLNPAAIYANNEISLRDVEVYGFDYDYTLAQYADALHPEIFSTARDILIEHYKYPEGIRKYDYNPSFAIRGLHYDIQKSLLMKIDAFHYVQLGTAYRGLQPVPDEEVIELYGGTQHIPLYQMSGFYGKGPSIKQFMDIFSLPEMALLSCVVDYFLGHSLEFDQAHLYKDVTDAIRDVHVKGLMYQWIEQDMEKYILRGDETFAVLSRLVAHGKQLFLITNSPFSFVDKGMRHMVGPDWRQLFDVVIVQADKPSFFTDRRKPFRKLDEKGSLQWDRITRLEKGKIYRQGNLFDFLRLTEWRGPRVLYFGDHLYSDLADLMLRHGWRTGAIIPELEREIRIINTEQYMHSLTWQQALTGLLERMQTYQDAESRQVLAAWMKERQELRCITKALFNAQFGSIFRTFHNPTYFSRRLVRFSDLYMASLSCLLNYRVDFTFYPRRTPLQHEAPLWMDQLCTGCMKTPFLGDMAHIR
Experiment: affinity purification with mass spectrometry; anti-GFP mAb-coated agarose beads on MHCC97H cells stably overexpressing GFP-NT5DC2 or a GFP vector control; LC-MS/MS, Mascot score over 60; hits overlapped with the HIPPIE database

HSPD1 (from UniProt P10809 27-573)
binding: binds
